The values that follow come from publication PMC5430073.

Experiment [1] addresses T1, eGFP-ClC-Ka (human) (UniProt P51800).
T1 sequence: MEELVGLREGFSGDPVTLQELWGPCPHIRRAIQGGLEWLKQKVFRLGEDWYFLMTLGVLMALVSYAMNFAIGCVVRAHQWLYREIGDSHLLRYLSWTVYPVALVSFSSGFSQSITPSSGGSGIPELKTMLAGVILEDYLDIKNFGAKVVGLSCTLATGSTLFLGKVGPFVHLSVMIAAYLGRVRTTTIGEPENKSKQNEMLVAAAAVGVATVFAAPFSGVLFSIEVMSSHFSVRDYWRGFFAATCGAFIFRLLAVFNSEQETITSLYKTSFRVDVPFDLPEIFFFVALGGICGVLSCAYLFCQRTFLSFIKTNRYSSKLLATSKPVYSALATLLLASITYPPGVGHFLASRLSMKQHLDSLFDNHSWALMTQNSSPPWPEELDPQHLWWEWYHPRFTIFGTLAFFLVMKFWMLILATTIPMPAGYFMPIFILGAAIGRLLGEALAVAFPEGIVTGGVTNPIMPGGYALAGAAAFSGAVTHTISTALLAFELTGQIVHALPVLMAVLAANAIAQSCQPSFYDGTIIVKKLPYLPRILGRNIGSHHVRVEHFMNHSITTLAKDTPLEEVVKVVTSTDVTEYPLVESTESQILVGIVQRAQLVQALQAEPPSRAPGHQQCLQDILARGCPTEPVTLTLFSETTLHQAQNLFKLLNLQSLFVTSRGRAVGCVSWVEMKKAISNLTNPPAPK
The experiment in a line: co-IP; Lysates (ComplexioLyte-47a) of co-transfected HEK293T cells; monoclonal anti-GFP antibody and protein G beads capture eGFP-CLC-K; elution with SDS loading buffer; co-eluted barttin-mCherry detected by fluorescence scan of a 10% SDS gel; control without antibody.

The target in experiment [2] is T2, eGFP-ClC-Kb (human) (UniProt P51801).
T2 sequence: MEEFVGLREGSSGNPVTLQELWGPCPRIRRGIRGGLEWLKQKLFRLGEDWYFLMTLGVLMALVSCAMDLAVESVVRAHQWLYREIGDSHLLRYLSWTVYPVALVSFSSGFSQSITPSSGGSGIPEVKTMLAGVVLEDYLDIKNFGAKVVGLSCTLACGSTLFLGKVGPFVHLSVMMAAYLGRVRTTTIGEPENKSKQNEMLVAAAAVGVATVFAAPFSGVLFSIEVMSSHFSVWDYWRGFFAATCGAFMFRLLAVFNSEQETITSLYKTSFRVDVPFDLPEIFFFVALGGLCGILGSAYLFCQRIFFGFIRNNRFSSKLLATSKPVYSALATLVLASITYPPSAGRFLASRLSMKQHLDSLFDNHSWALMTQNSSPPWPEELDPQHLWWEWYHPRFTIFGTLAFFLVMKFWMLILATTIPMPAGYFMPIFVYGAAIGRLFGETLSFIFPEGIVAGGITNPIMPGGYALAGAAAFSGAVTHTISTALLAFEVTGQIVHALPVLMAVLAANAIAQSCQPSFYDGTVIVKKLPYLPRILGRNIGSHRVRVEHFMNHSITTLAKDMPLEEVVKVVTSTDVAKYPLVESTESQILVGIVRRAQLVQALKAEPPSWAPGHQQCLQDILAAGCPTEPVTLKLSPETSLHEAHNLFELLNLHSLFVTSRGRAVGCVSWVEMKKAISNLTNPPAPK
Described as above.

Where a chain is given by its changes, count along the chain named. In names and notes the source's numbering stands. No constants are given. Whether binding was seen depends on the method and setting. In cells and extracts the contact can be indirect. Some results given as binding are weak or reduced against the parent protein; the word gives no strength. Sequences can lack the tags named with a protein.

B1: WT barttin-mCherry (protein, UniProt Q8WZ55 1-320)
chain: MADEKTFRIGFIVLGLFLLALGTFLMSHDRPQVYGTFYAMGSVMVIGGIIWSMCQCYPKITFVPADSDFQGILSPKAMGLLENGLAAEMKSPSPQPPYVRLWEEAAYDQSLPDFSHIQMKVMSYSEDHRSLLAPEMGQPKLGTSDGGEGGPGDVQAWMEAAVVIHKGSDESEGERRLTQSWPGPLACPQGPAPLASFQDDLDMDSSEGSSPNASPHDREEACSPQQEPQGCRCPLDRFQDFALIDAPTLEDEPQEGQQWEIALPNNWQRYPRTKVEEKEASDTGGEEPEKEEEDLYYGLPDGAGDLLPDKELGFEPDTQG
Take B1: the binding result in experiment [1] and in experiment [2] was “binds” in each case.

B2: V33L barttin-mCherry (protein, UniProt Q8WZ55 1-320)
chain: B1 chain with V33L
For B2, the binding result in experiment [1] and in experiment [2] was “binds” throughout.
